# Experimental data published in publication doi:10.1101/2025.07.24.666629.
# By UniProt entry, the sequences of proteins in these tests, tags left out. Where a name states a change or a piece, a line headed by the entry shows the natural chain unless it says otherwise. Residues count along the entry.
# UniProt P42858: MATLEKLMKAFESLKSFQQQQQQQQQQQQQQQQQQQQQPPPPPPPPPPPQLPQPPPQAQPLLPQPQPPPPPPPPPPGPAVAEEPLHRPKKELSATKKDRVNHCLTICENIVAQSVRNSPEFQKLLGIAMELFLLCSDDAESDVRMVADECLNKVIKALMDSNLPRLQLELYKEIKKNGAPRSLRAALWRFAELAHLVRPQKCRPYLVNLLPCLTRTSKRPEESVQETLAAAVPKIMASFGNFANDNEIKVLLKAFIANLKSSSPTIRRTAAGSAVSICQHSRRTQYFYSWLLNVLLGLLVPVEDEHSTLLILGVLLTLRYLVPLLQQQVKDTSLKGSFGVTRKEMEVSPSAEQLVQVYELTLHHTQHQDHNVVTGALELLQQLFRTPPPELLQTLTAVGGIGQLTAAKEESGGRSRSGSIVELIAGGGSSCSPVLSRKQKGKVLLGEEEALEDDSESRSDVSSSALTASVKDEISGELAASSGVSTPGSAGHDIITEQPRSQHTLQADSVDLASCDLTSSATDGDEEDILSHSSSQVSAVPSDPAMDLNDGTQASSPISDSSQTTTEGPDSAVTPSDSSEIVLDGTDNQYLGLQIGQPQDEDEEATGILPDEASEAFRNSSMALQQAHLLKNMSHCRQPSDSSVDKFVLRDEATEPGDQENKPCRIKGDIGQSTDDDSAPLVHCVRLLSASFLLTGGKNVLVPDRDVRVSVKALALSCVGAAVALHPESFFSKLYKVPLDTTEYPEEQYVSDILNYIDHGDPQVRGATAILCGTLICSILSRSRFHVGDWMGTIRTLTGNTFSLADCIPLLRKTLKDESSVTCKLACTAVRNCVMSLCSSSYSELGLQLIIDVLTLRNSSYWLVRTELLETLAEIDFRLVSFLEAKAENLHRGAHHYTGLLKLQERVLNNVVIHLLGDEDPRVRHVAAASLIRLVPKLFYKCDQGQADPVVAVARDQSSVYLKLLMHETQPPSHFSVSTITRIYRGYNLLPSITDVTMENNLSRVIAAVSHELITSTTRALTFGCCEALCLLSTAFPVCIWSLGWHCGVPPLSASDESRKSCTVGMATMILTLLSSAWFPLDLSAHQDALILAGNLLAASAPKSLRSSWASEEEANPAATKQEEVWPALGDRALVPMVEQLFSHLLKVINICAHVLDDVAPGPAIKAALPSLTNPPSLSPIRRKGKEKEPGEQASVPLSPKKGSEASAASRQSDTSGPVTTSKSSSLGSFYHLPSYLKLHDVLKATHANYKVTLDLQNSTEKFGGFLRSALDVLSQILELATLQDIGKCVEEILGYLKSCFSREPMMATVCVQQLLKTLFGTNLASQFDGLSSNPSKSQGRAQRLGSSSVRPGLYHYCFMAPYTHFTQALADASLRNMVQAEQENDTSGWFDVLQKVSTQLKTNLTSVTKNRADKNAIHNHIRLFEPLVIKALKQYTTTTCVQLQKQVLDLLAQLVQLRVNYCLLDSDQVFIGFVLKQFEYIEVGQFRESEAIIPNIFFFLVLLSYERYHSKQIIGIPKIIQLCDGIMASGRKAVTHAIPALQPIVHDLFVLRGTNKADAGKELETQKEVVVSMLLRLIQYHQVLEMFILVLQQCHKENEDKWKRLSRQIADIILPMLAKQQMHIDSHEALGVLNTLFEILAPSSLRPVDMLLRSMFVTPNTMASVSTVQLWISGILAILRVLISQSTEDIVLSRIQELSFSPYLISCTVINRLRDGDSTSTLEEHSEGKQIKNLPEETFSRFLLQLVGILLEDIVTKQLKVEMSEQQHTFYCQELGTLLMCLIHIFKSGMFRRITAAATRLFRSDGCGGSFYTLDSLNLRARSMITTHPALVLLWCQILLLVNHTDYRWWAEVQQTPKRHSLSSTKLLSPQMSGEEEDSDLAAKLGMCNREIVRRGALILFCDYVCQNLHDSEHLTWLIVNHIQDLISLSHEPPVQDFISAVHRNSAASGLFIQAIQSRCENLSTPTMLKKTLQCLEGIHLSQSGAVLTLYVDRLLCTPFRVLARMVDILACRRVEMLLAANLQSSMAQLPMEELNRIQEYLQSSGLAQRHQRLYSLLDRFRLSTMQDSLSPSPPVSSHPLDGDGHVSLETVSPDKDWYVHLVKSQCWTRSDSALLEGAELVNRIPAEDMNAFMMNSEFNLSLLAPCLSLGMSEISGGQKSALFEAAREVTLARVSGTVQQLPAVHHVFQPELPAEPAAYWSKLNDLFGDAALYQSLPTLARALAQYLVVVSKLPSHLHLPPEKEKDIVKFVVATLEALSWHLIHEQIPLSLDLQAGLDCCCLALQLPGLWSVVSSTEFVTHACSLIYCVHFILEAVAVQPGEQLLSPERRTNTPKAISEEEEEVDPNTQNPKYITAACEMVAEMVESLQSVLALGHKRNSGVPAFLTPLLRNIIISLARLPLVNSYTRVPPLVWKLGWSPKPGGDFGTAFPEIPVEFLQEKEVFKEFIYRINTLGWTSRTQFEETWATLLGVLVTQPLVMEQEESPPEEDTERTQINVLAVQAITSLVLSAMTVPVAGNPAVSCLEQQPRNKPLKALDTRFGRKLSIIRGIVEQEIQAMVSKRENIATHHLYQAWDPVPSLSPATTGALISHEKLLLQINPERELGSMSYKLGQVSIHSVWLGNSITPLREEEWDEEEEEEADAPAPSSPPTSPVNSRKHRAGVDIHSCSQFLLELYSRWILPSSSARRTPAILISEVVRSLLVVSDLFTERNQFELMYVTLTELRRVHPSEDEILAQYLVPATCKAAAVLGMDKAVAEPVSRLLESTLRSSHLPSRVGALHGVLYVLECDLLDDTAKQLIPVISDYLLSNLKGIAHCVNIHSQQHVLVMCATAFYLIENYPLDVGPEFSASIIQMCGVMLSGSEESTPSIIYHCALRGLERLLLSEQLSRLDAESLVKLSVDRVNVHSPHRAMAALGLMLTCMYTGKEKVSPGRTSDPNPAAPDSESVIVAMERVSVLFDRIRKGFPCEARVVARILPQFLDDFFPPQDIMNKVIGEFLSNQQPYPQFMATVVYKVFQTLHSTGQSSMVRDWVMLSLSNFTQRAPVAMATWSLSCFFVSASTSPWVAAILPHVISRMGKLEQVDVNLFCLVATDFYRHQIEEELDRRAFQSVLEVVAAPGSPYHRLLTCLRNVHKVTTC
# UniProt P54098: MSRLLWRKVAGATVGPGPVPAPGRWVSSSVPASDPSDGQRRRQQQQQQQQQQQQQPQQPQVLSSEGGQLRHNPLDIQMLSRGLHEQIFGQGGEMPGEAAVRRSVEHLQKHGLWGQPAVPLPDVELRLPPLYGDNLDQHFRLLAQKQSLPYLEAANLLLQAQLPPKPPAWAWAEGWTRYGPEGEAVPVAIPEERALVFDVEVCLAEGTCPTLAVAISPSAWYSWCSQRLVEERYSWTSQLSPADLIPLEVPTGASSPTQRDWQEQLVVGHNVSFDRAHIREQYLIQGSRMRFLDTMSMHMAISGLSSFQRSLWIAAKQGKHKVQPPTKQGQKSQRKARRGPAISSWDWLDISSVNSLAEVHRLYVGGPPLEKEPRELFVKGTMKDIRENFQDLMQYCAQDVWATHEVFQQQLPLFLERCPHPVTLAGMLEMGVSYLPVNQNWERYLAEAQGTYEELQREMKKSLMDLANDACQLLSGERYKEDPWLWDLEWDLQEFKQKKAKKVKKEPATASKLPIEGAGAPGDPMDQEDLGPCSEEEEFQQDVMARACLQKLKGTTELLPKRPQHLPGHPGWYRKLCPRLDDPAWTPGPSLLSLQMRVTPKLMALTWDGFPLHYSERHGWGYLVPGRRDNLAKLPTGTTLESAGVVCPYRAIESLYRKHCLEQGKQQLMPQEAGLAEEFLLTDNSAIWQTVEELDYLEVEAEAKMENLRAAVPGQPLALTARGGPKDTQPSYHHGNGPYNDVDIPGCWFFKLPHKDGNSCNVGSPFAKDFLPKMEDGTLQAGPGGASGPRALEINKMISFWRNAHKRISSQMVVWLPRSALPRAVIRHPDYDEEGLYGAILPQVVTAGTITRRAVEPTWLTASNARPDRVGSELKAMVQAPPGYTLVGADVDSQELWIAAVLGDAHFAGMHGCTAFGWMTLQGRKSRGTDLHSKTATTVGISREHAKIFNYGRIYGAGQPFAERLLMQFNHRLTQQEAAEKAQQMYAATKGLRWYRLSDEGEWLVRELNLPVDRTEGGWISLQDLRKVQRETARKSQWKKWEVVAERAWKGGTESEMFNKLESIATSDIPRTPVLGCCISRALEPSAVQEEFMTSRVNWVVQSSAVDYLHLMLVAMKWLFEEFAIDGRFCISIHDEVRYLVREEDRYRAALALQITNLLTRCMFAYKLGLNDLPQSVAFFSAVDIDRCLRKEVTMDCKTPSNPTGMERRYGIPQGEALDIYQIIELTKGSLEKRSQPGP
# UniProt O00411, residues 42-1230: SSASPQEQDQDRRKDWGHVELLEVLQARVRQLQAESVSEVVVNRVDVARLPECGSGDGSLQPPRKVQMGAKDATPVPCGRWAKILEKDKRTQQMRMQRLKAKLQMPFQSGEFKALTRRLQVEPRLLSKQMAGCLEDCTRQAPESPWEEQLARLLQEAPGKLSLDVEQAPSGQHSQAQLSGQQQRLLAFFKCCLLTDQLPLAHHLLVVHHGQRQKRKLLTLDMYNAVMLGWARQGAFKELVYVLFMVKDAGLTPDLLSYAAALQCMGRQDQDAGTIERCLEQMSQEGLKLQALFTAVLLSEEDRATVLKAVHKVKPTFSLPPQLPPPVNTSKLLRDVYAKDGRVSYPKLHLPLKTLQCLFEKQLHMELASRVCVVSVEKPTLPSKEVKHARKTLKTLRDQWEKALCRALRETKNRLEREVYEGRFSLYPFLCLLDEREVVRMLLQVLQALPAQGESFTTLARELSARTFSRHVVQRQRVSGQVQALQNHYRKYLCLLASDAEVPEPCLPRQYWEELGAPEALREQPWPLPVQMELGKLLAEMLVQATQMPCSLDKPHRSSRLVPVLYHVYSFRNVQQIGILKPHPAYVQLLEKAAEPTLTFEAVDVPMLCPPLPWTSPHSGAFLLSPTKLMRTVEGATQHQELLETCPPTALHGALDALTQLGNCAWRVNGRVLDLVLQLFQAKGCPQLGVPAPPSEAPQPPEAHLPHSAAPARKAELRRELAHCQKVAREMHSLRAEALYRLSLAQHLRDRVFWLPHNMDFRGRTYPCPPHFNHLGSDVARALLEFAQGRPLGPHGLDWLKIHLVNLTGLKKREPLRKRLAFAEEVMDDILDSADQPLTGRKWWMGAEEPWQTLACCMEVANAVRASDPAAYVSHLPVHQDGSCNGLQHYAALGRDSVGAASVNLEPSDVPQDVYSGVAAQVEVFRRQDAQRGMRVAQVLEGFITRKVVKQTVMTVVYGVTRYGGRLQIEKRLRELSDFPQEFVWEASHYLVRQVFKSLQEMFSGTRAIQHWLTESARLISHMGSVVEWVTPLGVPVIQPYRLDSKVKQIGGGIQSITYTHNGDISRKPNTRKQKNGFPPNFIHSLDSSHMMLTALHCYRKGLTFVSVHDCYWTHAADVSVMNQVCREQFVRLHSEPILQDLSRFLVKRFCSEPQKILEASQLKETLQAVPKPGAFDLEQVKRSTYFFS
# These are yes or no findings as the source states them, for the method shown. In cells and extracts the contact can be indirect. Binding can be weak; no strength is given.
# Columns and labels:
# [1] = target: FLAG-tagged HTT-Q24 (SH-SY5Y, constitutively expressed) (human) (UniProt P42858); experiment: co-IP; mitochondrial extracts of SH-SY5Y cells constitutively expressing FLAG-HTT-Q24 immunoprecipitated with anti-FLAG Ab (F3165); western blot for endogenous proteins
# [2] = target: wtHTT-Q19 overexpressed in SH-SY5Y cells (FLAG-tagged full-length HTT) (human) (UniProt P42858); experiment: proximity ligation; Duolink PLA on fixed, permeabilised SH-SY5Y cells (control cells and cells overexpressing wtHTT-Q19), without and with glucose oxidase (300 ng/mL, 30 min); mitochondria stained with MitoTracker Red; signals increased after glucose oxidase (HTT-TFAM 3 to 4-fold)
binding [1],binding [2],Substance
binds,,"POLGA (catalytic subunit of mitochondria-specific DNA polymerase gamma), endogenous (from UniProt P54098 1-1239)"
binds,binds,"mitochondrial RNA polymerase (POLRMT), endogenous (from UniProt O00411 42-1230)"
binds,binds,"polynucleotide-kinase-3'-phosphatase (PNKP), endogenous (from UniProt Q96T60 1-521)"
